Assay results published in PMC7948406.
Results are given in words; binding and its absence hold for the method and conditions named. In cells and extracts the contact can be indirect. Some results given as binding are weak or reduced against the parent protein; the word gives no strength.

Amino acid sequences for entries named in this document (tags omitted).
UniProt E9Q2Z1: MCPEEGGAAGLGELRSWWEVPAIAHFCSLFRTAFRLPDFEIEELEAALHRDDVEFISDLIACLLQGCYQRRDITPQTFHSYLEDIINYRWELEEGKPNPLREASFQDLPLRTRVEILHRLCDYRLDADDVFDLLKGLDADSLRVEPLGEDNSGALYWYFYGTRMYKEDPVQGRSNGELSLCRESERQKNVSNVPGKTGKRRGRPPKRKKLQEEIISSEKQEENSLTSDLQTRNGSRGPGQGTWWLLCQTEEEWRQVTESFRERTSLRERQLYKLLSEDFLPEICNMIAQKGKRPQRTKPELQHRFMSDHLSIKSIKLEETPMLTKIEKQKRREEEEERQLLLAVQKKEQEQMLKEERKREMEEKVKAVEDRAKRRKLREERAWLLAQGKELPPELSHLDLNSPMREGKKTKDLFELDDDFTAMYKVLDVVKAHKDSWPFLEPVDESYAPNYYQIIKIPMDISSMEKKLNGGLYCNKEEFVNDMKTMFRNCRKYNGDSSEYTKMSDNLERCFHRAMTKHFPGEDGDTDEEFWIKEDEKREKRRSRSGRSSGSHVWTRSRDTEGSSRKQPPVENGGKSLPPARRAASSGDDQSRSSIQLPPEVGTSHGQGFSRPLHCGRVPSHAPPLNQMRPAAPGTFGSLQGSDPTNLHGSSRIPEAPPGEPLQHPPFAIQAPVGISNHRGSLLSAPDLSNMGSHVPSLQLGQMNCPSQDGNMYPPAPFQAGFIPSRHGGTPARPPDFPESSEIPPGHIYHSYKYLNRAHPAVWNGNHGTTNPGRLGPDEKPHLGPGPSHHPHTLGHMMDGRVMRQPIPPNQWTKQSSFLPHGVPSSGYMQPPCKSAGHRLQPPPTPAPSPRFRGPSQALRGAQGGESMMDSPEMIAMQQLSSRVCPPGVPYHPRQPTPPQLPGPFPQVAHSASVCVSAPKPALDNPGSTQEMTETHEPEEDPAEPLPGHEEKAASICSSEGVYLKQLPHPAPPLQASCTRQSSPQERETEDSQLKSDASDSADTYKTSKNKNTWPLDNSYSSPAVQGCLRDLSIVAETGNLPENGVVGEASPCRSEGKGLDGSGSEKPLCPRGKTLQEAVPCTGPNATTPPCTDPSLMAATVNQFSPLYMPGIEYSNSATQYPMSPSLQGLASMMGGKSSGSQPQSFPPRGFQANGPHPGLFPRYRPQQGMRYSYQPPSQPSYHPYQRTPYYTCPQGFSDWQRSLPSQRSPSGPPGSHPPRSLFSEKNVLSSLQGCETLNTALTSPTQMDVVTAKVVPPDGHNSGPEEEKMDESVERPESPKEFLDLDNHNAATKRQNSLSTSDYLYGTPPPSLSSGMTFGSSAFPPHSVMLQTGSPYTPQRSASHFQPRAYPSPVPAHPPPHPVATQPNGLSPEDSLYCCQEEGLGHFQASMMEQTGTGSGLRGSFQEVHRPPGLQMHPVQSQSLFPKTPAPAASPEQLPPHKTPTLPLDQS
UniProt Q6PGB8: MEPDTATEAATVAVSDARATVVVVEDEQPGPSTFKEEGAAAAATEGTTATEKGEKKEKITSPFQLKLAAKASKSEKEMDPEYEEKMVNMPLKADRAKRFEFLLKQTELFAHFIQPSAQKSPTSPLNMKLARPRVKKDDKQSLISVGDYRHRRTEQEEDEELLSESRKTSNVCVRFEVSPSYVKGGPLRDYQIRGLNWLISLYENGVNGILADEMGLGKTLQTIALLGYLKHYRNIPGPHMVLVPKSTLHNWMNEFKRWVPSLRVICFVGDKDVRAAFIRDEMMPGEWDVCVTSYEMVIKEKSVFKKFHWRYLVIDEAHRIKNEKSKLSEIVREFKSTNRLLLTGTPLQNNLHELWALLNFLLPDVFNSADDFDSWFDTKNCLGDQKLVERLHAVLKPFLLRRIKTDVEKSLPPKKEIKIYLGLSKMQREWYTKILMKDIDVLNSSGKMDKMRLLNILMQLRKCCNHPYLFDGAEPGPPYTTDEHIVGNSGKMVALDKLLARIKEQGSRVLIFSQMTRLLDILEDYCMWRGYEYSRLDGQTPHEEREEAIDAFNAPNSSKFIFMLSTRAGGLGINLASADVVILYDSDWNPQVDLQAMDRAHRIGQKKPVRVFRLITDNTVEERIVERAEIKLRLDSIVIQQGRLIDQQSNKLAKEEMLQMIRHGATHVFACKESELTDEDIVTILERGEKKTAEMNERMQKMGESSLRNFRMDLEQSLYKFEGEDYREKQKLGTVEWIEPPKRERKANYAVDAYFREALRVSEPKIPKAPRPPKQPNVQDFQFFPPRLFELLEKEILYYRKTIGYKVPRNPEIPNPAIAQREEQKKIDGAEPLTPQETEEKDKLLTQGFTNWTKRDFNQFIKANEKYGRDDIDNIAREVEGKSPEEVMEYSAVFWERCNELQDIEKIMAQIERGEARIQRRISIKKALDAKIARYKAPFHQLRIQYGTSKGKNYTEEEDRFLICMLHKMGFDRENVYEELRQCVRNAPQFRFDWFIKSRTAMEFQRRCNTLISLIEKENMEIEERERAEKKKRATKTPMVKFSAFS

Molecular target: CECR2-HA (UniProt E9Q2Z1)
Experiment: co-IP; both co-expressed in Plat-E cells (results: 293 cells), lysed 36 h after transfection in 150 mM NaCl, 50 mM Tris-HCl pH 7.4, 2 mM EDTA, 1% NP-40; anti-HA beads 40 min at room temperature; blots with anti-HA and anti-FLAG

- binding: binds
Substance: SMARCA1-3×FLAG (from UniProt Q6PGB8 1-1046)
